Binding data for one substance are collected here from publication PMC7160059.

Sequences of proteins named here, by UniProt entry; tags and fusion partners are left off. A change or cut given only in a name is not applied to a line headed by its entry.
UniProt Q16665: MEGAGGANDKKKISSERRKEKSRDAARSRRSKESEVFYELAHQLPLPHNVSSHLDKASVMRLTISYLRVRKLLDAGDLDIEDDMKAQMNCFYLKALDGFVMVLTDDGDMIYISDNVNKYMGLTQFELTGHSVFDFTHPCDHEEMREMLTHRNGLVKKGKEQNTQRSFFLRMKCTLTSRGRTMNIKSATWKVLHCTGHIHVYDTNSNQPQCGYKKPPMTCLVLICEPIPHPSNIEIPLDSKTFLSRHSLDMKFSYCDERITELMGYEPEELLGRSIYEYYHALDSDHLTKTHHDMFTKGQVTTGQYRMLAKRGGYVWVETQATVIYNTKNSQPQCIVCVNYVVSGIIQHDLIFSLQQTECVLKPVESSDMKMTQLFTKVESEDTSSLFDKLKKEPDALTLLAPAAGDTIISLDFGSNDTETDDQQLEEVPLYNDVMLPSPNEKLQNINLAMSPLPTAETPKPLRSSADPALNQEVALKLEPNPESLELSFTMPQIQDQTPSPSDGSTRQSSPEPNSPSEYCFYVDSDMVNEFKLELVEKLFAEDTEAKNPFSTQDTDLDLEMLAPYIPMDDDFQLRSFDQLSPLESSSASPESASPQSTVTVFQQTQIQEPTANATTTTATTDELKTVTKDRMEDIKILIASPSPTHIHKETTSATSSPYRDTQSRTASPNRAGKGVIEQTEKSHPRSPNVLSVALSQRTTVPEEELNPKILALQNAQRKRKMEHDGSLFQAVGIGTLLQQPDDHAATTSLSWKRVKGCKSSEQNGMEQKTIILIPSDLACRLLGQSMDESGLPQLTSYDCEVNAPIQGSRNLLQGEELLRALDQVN
UniProt Q01714: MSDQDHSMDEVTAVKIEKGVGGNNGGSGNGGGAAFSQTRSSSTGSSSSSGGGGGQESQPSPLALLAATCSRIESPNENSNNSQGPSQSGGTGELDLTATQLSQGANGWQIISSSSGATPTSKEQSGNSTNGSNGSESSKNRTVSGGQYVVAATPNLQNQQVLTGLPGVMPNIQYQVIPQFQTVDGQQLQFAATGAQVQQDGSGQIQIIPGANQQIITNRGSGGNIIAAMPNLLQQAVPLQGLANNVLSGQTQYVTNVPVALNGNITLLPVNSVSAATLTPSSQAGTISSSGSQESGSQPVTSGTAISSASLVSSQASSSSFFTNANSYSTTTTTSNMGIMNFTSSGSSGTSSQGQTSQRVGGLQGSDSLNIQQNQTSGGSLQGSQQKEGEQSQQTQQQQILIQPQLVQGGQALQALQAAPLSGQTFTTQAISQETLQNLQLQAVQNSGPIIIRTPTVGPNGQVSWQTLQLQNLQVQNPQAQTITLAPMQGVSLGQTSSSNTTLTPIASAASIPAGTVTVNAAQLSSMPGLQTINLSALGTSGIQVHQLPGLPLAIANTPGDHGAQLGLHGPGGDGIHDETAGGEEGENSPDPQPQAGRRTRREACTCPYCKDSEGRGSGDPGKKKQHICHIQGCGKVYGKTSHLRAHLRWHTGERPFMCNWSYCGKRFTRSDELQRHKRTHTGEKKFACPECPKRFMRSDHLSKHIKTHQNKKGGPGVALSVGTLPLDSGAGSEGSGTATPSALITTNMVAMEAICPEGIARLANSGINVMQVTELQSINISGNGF

These are yes or no findings as the source states them, for the method shown. In cells and extracts the contact can be indirect. Some binding calls cover weakened binding; strength is not graded here.

In this experiment the target is HIF-1αR30A (UniProt Q16665). Briefly: co-IP; nuclear fractions of GH3 cells (hypoxic); Protein G Dynabeads coupled to the primary antibody (anti-HIF-1α), overnight at 4 °C; immunoprecipitates blotted for Sp1; rabbit IgG as control.

For Sp1 (from UniProt Q01714 1-786), the binding result is “binds”.
